The record followed here is publication PMC9265050, “Inhibition of RNA Binding in SND1 Increases the Levels of miR-1-3p and Sensitizes Cancer Cells to Navitoclax” (Cancers, 2022).

For at least one entry, the source does not settle the construct or the ends of the probe. For some of these results: At least one verdict rests on a figure or table, not on a statement of the authors. Tags and fusion partners may be left off the protein sequences shown. For some of these results: The direction of at least one scale is not stated here.

Data set [1] deals with T1, SND1 full-length (UniProt Q7KZF4).
T1 sequence (looked up, limits assumed): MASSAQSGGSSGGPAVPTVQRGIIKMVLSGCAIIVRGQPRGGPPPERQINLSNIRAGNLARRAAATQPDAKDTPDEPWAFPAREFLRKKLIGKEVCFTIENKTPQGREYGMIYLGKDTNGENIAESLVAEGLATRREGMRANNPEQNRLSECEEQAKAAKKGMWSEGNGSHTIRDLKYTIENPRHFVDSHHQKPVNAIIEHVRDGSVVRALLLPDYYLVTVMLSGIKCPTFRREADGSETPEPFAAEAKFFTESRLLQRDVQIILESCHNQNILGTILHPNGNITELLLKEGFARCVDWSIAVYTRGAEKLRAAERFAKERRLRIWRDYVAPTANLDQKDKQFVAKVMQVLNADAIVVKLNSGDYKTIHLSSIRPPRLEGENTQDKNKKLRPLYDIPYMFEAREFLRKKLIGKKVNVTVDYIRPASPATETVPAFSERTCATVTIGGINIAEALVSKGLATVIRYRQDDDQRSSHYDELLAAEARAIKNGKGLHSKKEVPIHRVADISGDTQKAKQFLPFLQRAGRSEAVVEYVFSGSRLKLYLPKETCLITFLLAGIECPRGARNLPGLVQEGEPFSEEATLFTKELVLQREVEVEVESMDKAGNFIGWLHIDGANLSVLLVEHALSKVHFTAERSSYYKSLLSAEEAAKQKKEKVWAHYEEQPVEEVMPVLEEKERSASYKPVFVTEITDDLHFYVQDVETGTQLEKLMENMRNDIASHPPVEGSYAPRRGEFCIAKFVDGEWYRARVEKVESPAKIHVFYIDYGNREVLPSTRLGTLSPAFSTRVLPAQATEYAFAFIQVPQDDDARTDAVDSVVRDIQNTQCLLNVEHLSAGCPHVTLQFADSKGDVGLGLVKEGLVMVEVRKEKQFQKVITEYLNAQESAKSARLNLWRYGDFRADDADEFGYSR
Nature of the data set: fluorescence polarization. To be noted: EGTA, no Ca2+, high affinity, Kd only in figure; FP: 20 mM HEPES pH 7.5, 100 mM NaCl, 3 nM labelled RNA, 25 C; recombinant protein; protein details: GST tag removed by TEV; label: 5' Alexa Fluor 488.

For data set [2], the target named is T2, SND1 SN1-SN2 (UniProt Q7KZF4).
T2 sequence (looked up): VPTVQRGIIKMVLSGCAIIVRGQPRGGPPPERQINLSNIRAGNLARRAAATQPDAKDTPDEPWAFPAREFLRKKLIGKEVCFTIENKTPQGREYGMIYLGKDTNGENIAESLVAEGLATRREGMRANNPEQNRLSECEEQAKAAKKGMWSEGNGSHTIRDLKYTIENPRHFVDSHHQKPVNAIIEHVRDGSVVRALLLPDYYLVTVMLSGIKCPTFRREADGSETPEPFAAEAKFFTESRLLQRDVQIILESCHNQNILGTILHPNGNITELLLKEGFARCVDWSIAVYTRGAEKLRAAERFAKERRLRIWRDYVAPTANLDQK
Nature of the data set: fluorescence polarization. To be noted: FP: 20 mM HEPES pH 7.5, 100 mM NaCl, 3 nM labelled RNA, 25 C; recombinant protein; residues 16-339; protein details: GST tag removed by TEV; label: 5' Alexa Fluor 488; scale: fold lower affinity than full-length SND1. In general terms: Fluorescence polarisation rises when a labelled molecule tumbles more slowly, as on binding a larger partner.

Data set [3] addresses T3, SND1 SN3-SN4-TSN (UniProt Q7KZF4).
T3 sequence (looked up): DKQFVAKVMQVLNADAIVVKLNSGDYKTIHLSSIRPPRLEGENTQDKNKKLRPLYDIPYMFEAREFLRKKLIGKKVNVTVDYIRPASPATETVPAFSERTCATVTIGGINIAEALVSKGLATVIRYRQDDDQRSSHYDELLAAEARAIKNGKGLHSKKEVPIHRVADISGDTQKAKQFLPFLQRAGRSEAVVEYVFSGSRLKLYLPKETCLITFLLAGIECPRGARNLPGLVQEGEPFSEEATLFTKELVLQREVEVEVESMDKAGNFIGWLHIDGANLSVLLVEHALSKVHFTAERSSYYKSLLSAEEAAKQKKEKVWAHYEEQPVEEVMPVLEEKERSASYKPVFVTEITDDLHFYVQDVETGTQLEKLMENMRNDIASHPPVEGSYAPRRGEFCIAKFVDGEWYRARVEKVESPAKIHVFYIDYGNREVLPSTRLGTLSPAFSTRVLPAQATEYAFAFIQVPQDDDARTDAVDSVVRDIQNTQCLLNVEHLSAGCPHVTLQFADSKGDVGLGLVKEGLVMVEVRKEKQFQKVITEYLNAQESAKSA
Nature of the data set: fluorescence polarization. To be noted: FP: 20 mM HEPES pH 7.5, 100 mM NaCl, 3 nM labelled RNA, 25 C; recombinant protein; residues 340-888; protein details: GST tag removed by TEV; label: 5' Alexa Fluor 488; scale: fold lower affinity than full-length SND1.

For data set [4], the target named is T1, SND1 full-length. As to the kind of experiment: EMSA. To be noted: 5 mM EGTA, 2 uM RNA, 2 uM SND1; EMSA: same buffer with 5 mM EGTA or 5 mM CaCl2, room temperature 1 or 4 h, 20% PAGE 1xTBE 4 C; recombinant protein; protein details: GST tag removed by TEV; label: 5' Alexa Fluor 488.

Take “UAGCACCAUUUGAAAUCAGUGUU [Alexa Fluor 488 RNA tracer]”: the binding result in data set [1] and in data set [4] was “binds” in each case. For the same sequence, the binding signal in data set [2] and in data set [3] was 100 throughout.
